Measurements as given in PMC8157631.

Amino acid sequences for entries named in this document (tags omitted). Residues count along the entry.
UniProt Q00604, residues 25-133: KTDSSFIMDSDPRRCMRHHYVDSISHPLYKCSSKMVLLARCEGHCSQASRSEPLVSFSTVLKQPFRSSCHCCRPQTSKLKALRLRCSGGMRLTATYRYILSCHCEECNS

Tests used:
[1] = target: T1, Retinoschisin (RS1) (human (endogenous in human retina)) (UniProt O15537); experiment: affinity purification with mass spectrometry; RS1 or NDP immunoprecipitated complex from human retinal tissue, MALDI-TOF peptide mass fingerprinting, MASCOT search against Swissprot
T1 sequence: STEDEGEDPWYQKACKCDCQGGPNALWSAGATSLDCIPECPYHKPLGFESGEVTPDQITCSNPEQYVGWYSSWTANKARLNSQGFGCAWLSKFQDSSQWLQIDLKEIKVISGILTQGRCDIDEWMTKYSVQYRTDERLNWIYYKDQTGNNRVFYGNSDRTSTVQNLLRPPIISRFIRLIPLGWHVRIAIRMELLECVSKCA

[2] = target: Norrin (NDP) (human (endogenous in human retina)) (UniProt Q00604); experiment: as above

binding [1]: no binding
Molecule: Norrin (NDP) (from UniProt Q00604 25-133)

binding [2]: no binding
B1: Retinoschisin (RS1) (protein, UniProt O15537 24-224)
chain: T1 sequence

Results are given in words; binding and its absence hold for the method and conditions named. In cells and extracts the contact can be indirect. A yes stands for co-enrichment or nearness to the bait. Other partners may have been found. No binding means not detected with the bait. Sequences can lack the tags named with a protein. One block for each molecule: values may come before it.
